From PubChem BioAssay AID504467 (National Center for Advancing Translational Sciences (NCATS), 2011)
In all, about 330,000 compounds went through this assay and about 7,700 (2.3%) were called active. The shares of active, inactive and inconclusive entries below differ from those in the screen. Calls come from the whole dose curve; as a rule, active = well fitted inhibition curve with a large enough effect; inconclusive = small, poorly fitted or top-dose-only effect, or effect the other way; inactive = flat fitted curve, though single readings scatter. Where the call is inconclusive, the potency comes from a doubtful curve fit.

Assay: qHTS screen for small molecules that inhibit ELG1-dependent DNA repair in human embryonic kidney (HEK293T) cells expressing luciferase-tagged ELG1; note: nearly all actives have a fitted effect of over 55% in size
Conditions: HEK293T ELG1-luciferase reporter, luminescence, 16 h, DNA damage induced by 5-fluorouridine; activity change, negative = inhibition: at 46.1 µM (top of the series)
Procedure, shortened: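 5-Fluorouridine DNA damage + compound/DMSO, 2,000 cells/well, 16 h, 37 °C/5% CO2. ONE-Glo, 30 min RT, luminescence. Readout = decrease in reporter signal.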
% is set by controls: 0 for no effect and ±100 for the full control effect; potency is the fitted concentration of half-maximal effect.

**Q.** Which Potency does the source give for `Cc1nc(-c2ccccn2)nc(N2CCOCC2)c1Cl` here?
**A.** inconclusive: 29.1 µM [inhibitor, single point]

**Q.** With `O=C(C1CCC(CNS(=O)(=O)c2cccc3cccnc23)CC1)N1CCc2ccccc21` (centres undefined) as the compound, how does the Potency read?
**A.** inconclusive: 29.1 µM [inhibitor, single point]

**Q.** With `COc1ccc(N2C(=O)c3ccc(C(=O)OC(C)C)cc3C2=O)cc1` as the compound, how does the “activity change, negative = inhibition” value read?
**A.** inactive: 6.81%

**Q.** With `CCN(CC)c1ccc(/C=N/OCC(=O)Nc2cccc(C)c2)cc1` as the compound, how does the “activity change, negative = inhibition” value read?
**A.** inactive: 23.5%

**Q.** For `O=S(=O)(c1ccc(NC(=S)N/N=C/c2ccc(Oc3ccccc3)cc2)cc1)N1CCOCC1`, which “activity change, negative = inhibition” value is on record?
**A.** inactive: 12.2%

**Q.** For `COc1ccc(C(=O)NCCc2cccc(Cl)c2)cc1OC1CCN(C(C)=O)CC1`, which Potency is on record?
**A.** inconclusive: 25.9 µM [inhibitor, single point]

**Q.** With `CCCCCCOC(=O)c1ccc(N)cc1` as the compound, how does the Potency read?
**A.** inconclusive: 29.1 µM [activator, single point]

**Q.** Which Potency does the source give for `COc1ccc(Cc2noc(CN3CCN(c4ccc(Cl)cn4)CC3)n2)cc1OC` here?
**A.** inconclusive: 5.8 µM [inhibitor, full curve]

**Q.** For `CCc1noc(C)c1C(=O)Nc1cccc(S(=O)(=O)N2CCCCCC2)c1`, which Potency is on record?
**A.** inconclusive: 15.8 µM [inhibitor, single point]

**Q.** For `COc1cc(C(=O)NC(=S)Nc2ccc(NC(=O)c3ccco3)cc2)cc(OC)c1OC`, which Potency is on record?
**A.** inconclusive: 4.61 µM [inhibitor, single point]

**Q.** Which “activity change, negative = inhibition” value does the source give for `CCNC(=S)NNC(=S)NCc1ccccc1` here?
**A.** inactive: -9.64%

**Q.** For `Cn1c(=O)[nH]c(=O)c2c1nc(N/N=C/c1ccncc1)n2Cc1ccc(Cl)cc1`, which Potency is on record?
**A.** inconclusive: 2.59 µM [activator, full curve]

**Q.** With `Cc1ccc(C)c(OCC(=O)Nc2ccc3c(c2)OCO3)c1` as the compound, how does the Potency read?
**A.** inconclusive: 20.6 µM [activator, single point]

**Q.** Which Potency does the source give for `COc1cccc(C2CC(c3cccc(C)c3)n3ncnc3N2)c1` (centres undefined) here?
**A.** inconclusive: 29.1 µM [activator, partial curve, poor fit]

**Q.** With `COc1ccc(OC)c(NS(=O)(=O)c2ccc(NC(C)=O)cc2)c1` as the compound, how does the “activity change, negative = inhibition” value read?
**A.** inactive: -24.2%

**Q.** With `CCCOc1ccc2oc(=O)c3c(c2c1)CCCN3C(=O)CN1CCc2ccccc2C1` as the compound, how does the Potency read?
**A.** inconclusive: 29.1 µM [inhibitor, single point]

**Q.** For `C/C(=N/OCC(=O)Nc1ccccc1)c1cccs1`, which Potency is on record?
**A.** inconclusive: 11.6 µM [activator, partial curve]

**Q.** With `C/C(=N\Nc1ccc(S(=O)(=O)Nc2ccccc2)cc1[N+](=O)[O-])c1ccc(N2CCOCC2)cc1` as the compound, how does the “activity change, negative = inhibition” value read?
**A.** inactive: -6.74%

**Q.** With `COc1ccc(-c2sc3cc(OC)c(OC)cc3c2C#CCO)cc1` as the compound, how does the Potency read?
**A.** inconclusive: 23.1 µM [inhibitor, single point]
